In patent US20240043837:

Molecular target: Transferrin receptor extracellular domain (TfR, hTfR1) (UniProt P02786)
Test: SELEX
Conditions: 2'-F U and 2'-F C; clone from pool after 12 rounds; 30 mM Tris-HCl, 150 mM NaCl, 1.5 mM MgCl2, 2 mM DTT, 1% BSA, room temperature; no affinity given; purified recombinant protein

Question: For “GGGAGACAAGAAUAAACGCUCAAUGCGUUCACGUUUAUUCACAUUUUUGAAUUGAGCAUGAGCUUCGACAGGAGGCUCACAACAGGC [TR14]”, which selection result is on record?
Answer: selected

For at least one entry, the source does not settle the construct or the ends of the probe.
